Source: PubChem BioAssay AID1508588 (Peter MacCallum Cancer Centre, 2020)
The whole screen tested about 18,000 reagents; below is a part drawn at random. In the full data, 790 (4.4%) got an active call. 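Calls rest on a combination of fold-change classes in drug and vehicle arms, not all shown here.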 A number with no mark means an inactive call. The numbers tell different reagents against one gene apart. Reagent sequences are not shown.

- Assay: 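Which gene losses make BRAF-mutant melanoma cells more responsive to vemurafenib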 (primary screen)
- Cells: human WM266.4 melanoma cells (BRAF V600 mutant)
- Reagent: siRNA pool against human genes, 40 nM
- Duration: 96 h from transfection to read-out
- Treatment: vemurafenib 300 nM (about IC25), added 48 h after transfection, for 48 h; comparison arm got DMSO vehicle only
- Detection: 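Ratios to non-targeting siRNA for cell gain, counted as DAPI nuclei after minus before drug and averaged over two replicates, and for absorbance-read medium lactate per cell; both binned into fold-change classes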
- Direction: cell gain with vemurafenib: higher = more cell gain than with non-targeting siRNA; lactate per cell with vemurafenib: higher = more lactate made per cell
- Call rule: 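Enhancement is called by pairing each knock-down's vehicle-arm and drug-arm fold-change classes for viability or glycolysis; which class combinations qualify is not given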
- Meaning of the calls: active = enhances vemurafenib effect; inactive = no enhancement seen

| gene symbol | reagent | cell gain with vemurafenib | lactate per cell with vemurafenib |
| --- | --- | --- | --- |
| SLC6A8 | 1 | 0.52 | 1.14 |
| IVL | 1 | 0.94 | 0.62 |
| CCDC97 | 1 | 0.94 | 1.21 |
| COL9A2 | 1 | 0.15 | 0.78 |
| ADIRF | 1 | 0.32 (active) | 0.45 |
| ZNF391 | 1 | 0.89 | 0.98 |
| HOXD11 | 1 | 0.02 | 2.69 |
| KIF25 | 1 | 0.42 | 1.16 |
| OR1L3 | 1 | 0.7 | 0.62 |
| TGS1 | 1 | 0.75 | 1 |
| ATRX | 1 | 0.85 | 0.52 |
| SLC17A7 | 1 | 0.28 | 0.56 |
| NIPSNAP3B | 1 | 0.45 | 0.28 |
| HEYL | 1 | 0.92 | 0.68 |
| ENTREP1 | 1 | 0.18 | 1.52 |
| PPIL2 | 1 | 1.04 | 0.56 |
| OR2U1P | 1 | 0.58 | 0.28 |
| GIMAP2 | 1 | 0.61 | 0.82 |
| NAGA | 1 | 0.42 | 1.46 |
| CCDC184 | 1 | 0.71 | 1.31 |
| KLK3 | 1 | -0.05 | 1.3 |
| NANS | 1 | 0.16 | 1.64 |
| SNW1 | 1 | 0.18 | 2.12 |
| OR8B8 | 1 | 0.01 | 1.58 |
| TENT4B | 1 | 0.58 | 0.86 |
| ARHGEF10L | 1 | 0.77 | 0.44 |
| MLXIP | 1 | 1.25 | 0.86 |
| SLA2 | 1 | 0.42 | 1 |
| FAN1 | 1 | 0.48 | 0.88 |
| GYG1 | 1 | 0.26 | 1.66 |
| COL15A1 | 1 | 0.65 | 0.4 |
| NDUFB4 | 1 | 0.35 | 2.4 |
| ANKRA2 | 1 | 1.08 | 0.8 |
| C10orf55 | 1 | 0.35 | 0.92 |
| OTX1 | 1 | 0.74 | 0.82 |
| CROCC | 1 | 0.51 | 0.61 |
| GGA3 | 1 | 0.24 | 1.02 |
| MLLT11 | 1 | 0.98 | 1.1 |
| ZNF574 | 1 | 0.2 | 1.44 |
| C8G | 1 | 0.86 | 0.74 |
| FAM131A | 1 | 1 | 0.7 |
| GSTA1 | 1 | 0.37 | 1.12 |
| CDH20 | 1 | 0.67 | 0.83 |
| IK | 1 | -0.13 | 3.49 |
| ESR2 | 1 | 0.99 | 0.84 |
| L3MBTL3 | 1 | 0.22 (active) | -0.03 |
| TCEANC2 | 1 | 0.49 | 0.99 |
| TBC1D3C | 1 | 0.91 | 0.99 |
| LIPH | 1 | 1.1 | 0.68 |
| HTR3D | 1 | 0.99 | 0.71 |
| CRH | 1 | 0.88 | 0.76 |
| ZNF222 | 1 | 0.81 | 0.61 |
| PRG3 | 1 | 0.38 (active) | 0.4 |
| MYCT1 | 1 | 0.28 | 1.3 |
| VPS35 | 1 | 0.25 | 1.36 |
| KRTAP6-3 | 1 | 0.76 | 0.62 |
| SLC5A10 | 1 | 0.32 | 1.34 |
| NAP1L3 | 1 | 0.63 | 0.62 |
| CYP2J2 | 1 | 0.8 | 0.98 |
| NXPH1 | 1 | 0.15 | 1.83 |
| GPR62 | 1 | 1 | 0.68 |
| COTL1 | 1 | 0.04 | 2.37 |
| BBS5 | 1 | 0.63 | 0.69 |
| SRRT | 1 | 1.07 | 0.96 |
| SPATA31A7 | 1 | 0.7 | 0.32 |
| LMO7 | 1 | 1.06 | 0.82 |
| IQCH | 1 | 0.92 | 0.42 |
| DEFB110 | 1 | 0.55 | 0.99 |
| DEFB110 | 2 | 0.6 | 0.22 |
| RBKS | 1 | 0.61 | 0.44 |
| OR6C3 | 1 | 0.23 | 1.28 |
| OR52W1 | 1 | 0.15 | 0.98 |
| TSPOAP1 | 1 | 0.82 | 1.02 |
| NDUFA2 | 1 | 0.5 | 1.77 |
| SIK3 | 1 | 0.4 | 1.23 |
| PPWD1 | 1 | 0.77 | 0.87 |
| NUP93 | 1 | 0.14 | 2.08 |
| ACADS | 1 | 0.72 | 1.31 |
| MAGEA2 | 1 | 0.25 | 0.77 |
| PSMC5 | 1 | -0.03 | 3.37 |
| ZDHHC23 | 1 | 0.25 | 1.92 |
| KCNH6 | 1 | 0.37 | 0.7 |
| SFXN4 | 1 | 0.67 | 0.66 |
| KRTAP5-7 | 1 | 0.4 | 1.81 |

As entered above:
CYP2J2, lactate per cell with vemurafenib: 0.98
NXPH1, cell gain with vemurafenib → 0.15
SIK3, cell gain with vemurafenib: 0.4
RBKS, cell gain with vemurafenib → 0.61
Under “lactate per cell with vemurafenib”, ACADS reads 1.31
TSPOAP1, lactate per cell with vemurafenib = 1.02
